Values of other authors, collected in US12173291B2, “Unnatural base pair compositions and methods of use” (THE SCRIPPS RESEARCH INSTITUTE, priority 2017, dated 2024).

Tested on: E. coli
Settings: actively growing cultures of E. coli; cited from earlier work

Row | Compound | Extracellular degradation to di- and mono-phosphate and nucleoside species
1 | COc1cc2ccccc2cc1[C@H]1C[C@H](O)[C@@H](COP(=O)(O)OP(=O)(O)OP(=O)(O)O)O1 [dNaMTP, triphosphate of dNaM] | degrade
2 | O=P(O)(O)OP(=O)(O)OP(=O)(O)OC[C@H]1O[C@@H](n2ccc3ccsc3c2=S)C[C@@H]1O [dTPT3TP] | degrade
